# PubChem BioAssay AID504795, Drosophila RNAi Screening Center – 2011
# Test: 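Knock-downs causing abnormal branching, bundling, swelling or growth of cultured neurons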 (primary screen)
# Cell system: primary Drosophila neurons and glia
# Reagent: long dsRNA against Drosophila genes, 250 ng dsRNA per well
# Timing: one week
# Measured: 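Descriptive morphology terms assigned by visual inspection of live automated images of GFP-marked cells, taken one week after adding 250 ng dsRNA per well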
# This is not the whole library: the list holds selected reagents. 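Every listed dsRNA shows some phenotype; how reagents were selected for listing is not stated.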 A plus sign joins genes that one reagent is predicted to hit. Reagent sequences are not shown.
target gene,PubChem SID,"phenotype seen, replicate 1","phenotype seen, replicate 2"
CG33702,SID104188778,axon bundles split apart,
pll (pelle),SID104196818,cell fragments present,
Gr5a (Gustatory receptor 5a),SID104197877,too many neurite branches,
Cpsf100 (Cleavage and polyadenylation specificity factor 100),SID104193938,beaded; swollen axons,
"morgue (modifier of rpr and grim, ubiquitously expressed)",SID104180056,axon bundles split apart,
CG13743,SID104184931,reduced axon outgrowth,
Syx1A (Syntaxin 1A),SID104201269,sheet-like cell extensions,
CG9130 + CG9133,SID104188416,too many neurite branches,
spartin,SID104191979,fewer cells,
Cpr62Bc (Cuticular protein 62Bc),SID104188337,axon bundles split apart,
RpL18 (Ribosomal protein L18),SID104190808,axon bundles split apart,
RpL18 (Ribosomal protein L18),SID104201824,axon bundles split apart,
CHKov1 (CHK domain ov1),SID104181488,axon bundles split apart,
spri (sprint),SID104197638,abnormal cell clusters,
CG18420,SID104181746,axon bundles split apart,
Ref1 (RNA and export factor binding protein 1),SID104192289,axon bundles split apart,
Ref1 (RNA and export factor binding protein 1),SID104201866,too many neurite branches,
msd1 (mitotic spindle density 1),SID104188175,axon bundles split apart,
mthl6 (methuselah-like 6),SID104190026,axon bundles split apart,
CG17048,SID104186441,reduced axon outgrowth,
"Caf1-55 (Chromatin assembly factor 1, p55 subunit)",SID104196388,sheet-like cell extensions,
CG42568 + DnaJ-60,SID104183999,too many neurite branches,
Diap1 (Death-associated inhibitor of apoptosis 1),SID104191196,fewer cells,
Vang (Van Gogh),SID104187362,fewer cells,
OstDelta (Oligosaccharide transferase Delta subunit),SID104186772,abnormal cell clusters,
CG13801,SID104188127,too many neurite branches,
CG8891,SID104182912,axon bundles split apart,
CG17298,SID104195013,too many neurite branches,
CG15650,SID104184033,axon bundles split apart,
MED11 (Mediator complex subunit 11),SID104190531,axon bundles split apart,
LIMK1 (LIM domain kinase 1),SID104199603,too many neurite branches,
RnrL (Ribonucleoside diphosphate reductase large subunit),SID104183205,axon bundles split apart,
CG11076,SID104196989,axon bundles split apart,
Rpn12 (Regulatory particle non-ATPase 12),SID104191067,too many neurite branches,
eIF1 (eukaryotic translation initiation factor 1),SID104188312,too many neurite branches,
CG10638,SID104189554,too many neurite branches,
par-1,SID104187452,axon bundles split apart,
CheB93b (Chemosensory protein B 93b),SID104201430,reduced axon outgrowth,
heph (hephaestus),SID104195228,sheet-like cell extensions,
CG34426,SID104189769,too many neurite branches,

3 of these entries, set out differently.
{"target gene":"CG17298","PubChem SID":"SID104195013","phenotype seen, replicate 1":"too many neurite branches"}
{"target gene":"CG15650","PubChem SID":"SID104184033","phenotype seen, replicate 1":"axon bundles split apart"}
{"target gene":"MED11 (Mediator complex subunit 11)","PubChem SID":"SID104190531","phenotype seen, replicate 1":"axon bundles split apart"}

Additional records:
target gene,PubChem SID,"phenotype seen, replicate 1","phenotype seen, replicate 2"
Tango6 (Transport and Golgi organization 6),SID104182463,axon bundles split apart,
CG3841,SID104182522,abnormal cell clusters,
CG11438,SID104191452,cell fragments present,
CG7031,SID104195970,too many neurite branches,
CG5455,SID104195597,reduced axon outgrowth,
CG12003,SID104188006,sheet-like cell extensions,
sktl (skittles),SID104184507,abnormal cell clusters,
CG13056,SID104189729,too many neurite branches,
CG6149,SID104190385,cell fragments present,
CG42699,SID104197868,cell fragments present,
CG9003,SID104187109,axon bundles split apart,
CG11583,SID104187994,axon bundles split apart,
egg (eggless),SID104201974,fewer cells,too many neurite branches
CG31464,SID104194137,too many neurite branches,
CG32820 + CG17450 + CG32819,SID104201459,axon bundles split apart,
glec (gliolectin),SID104196750,abnormal cell clusters,
CG14654 (retired record),SID104192032,axon bundles split apart,
stum (stumble),SID104184060,axon bundles split apart,
CG13022,SID104189694,axon bundles split apart,
Psn (Presenilin),SID104191535,abnormal cell clusters,
dmrt11E (doublesex-Mab related 11E),SID104199507,axon bundles split apart,
blp (black pearl),SID104195549,axon bundles split apart,
Pxd (Peroxidase),SID104196597,beaded; swollen axons,
lncRNA:CR32661 (long non-coding RNA:CR32661),SID104199586,too many neurite branches,
Ttc7 (Tetratricopeptide repeat domain 7),SID104184628,sheet-like cell extensions,
Ent3 (Equilibrative nucleoside transporter 3),SID104189614,abnormal cell clusters,
Gtpx,SID104188013,too many neurite branches,
Mdr50 (Multi drug resistance 50),SID104187259,fewer cells,
CG8736,SID104187047,beaded; swollen axons,
Ccdc58 + CG34116,SID104189897,fewer cells,
CG8888,SID104187087,sheet-like cell extensions,
rhea,SID104191092,abnormal cell clusters,
CG5890,SID104195701,abnormal cell clusters,
RpS17 (Ribosomal protein S17),SID104191063,axon bundles split apart,
